# In publication PMC2650409:
# The chains behind the UniProt entries cited, without tags or fusion partners.
# UniProt P49407: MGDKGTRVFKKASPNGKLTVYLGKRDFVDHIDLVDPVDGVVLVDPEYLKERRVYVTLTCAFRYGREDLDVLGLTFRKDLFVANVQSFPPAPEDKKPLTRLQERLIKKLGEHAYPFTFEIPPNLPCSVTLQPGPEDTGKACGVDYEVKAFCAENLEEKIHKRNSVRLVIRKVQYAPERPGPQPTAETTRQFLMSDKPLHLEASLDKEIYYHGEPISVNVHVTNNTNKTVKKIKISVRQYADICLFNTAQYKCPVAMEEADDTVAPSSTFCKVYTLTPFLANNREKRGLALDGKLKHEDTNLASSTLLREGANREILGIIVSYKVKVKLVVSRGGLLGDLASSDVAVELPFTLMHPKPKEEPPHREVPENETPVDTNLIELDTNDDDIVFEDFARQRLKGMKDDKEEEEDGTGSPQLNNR
# UniProt P32121: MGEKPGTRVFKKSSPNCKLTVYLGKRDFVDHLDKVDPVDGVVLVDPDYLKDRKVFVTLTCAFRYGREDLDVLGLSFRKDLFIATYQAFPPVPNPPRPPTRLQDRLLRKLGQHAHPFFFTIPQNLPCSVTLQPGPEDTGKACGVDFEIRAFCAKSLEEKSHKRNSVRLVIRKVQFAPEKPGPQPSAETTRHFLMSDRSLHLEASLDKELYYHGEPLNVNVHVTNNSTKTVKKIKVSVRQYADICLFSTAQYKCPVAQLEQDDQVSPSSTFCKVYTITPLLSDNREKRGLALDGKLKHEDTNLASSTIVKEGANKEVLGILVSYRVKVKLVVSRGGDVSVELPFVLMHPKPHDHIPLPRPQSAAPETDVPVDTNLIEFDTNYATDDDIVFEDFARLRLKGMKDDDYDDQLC
# No constants are given. Whether binding was seen depends on the method and setting. Binding seen in cells or lysates may run through a third protein.
# Key:
# [1] = target: β-arrestin 1 (human (endogenous in HEK 293)) (UniProt P49407); assay: co-IP; HEK-GHSR1a cells, serum-starved, ghrelin 100 nM 10 min at 37°C; NP-40 lysis buffer; IP with anti-β-arrestin 1 or anti-β-arrestin 2; blots with pAkt HM (S473), pAkt A-loop (T308), pPDK1 (S241), Rictor, mTOR
# [2] = target: β-arrestin 2 (human (endogenous in HEK 293)) (UniProt P32121); assay: as above
binder,measurement,setting,value
"3-phosphoinositide-dependent protein kinase 1 (PDK1), pPDK1 (S241) (enzyme, UniProt O15530 1-556, phosphoserine at 241) MARTTSQLYDAVPIQSSVVLCSCPSPSMVRTQTESSTPPGIPGGSRQGPAMDGTAAEPRPGAGSLQHAQPPPQPRKKRPEDFKFGKILGEGSFSTVVLARELATSREYAIKILEKRHIIKENKVPYVTRERDVMSRLDHPFFVKLYFTFQDDEKLYFGLSYAKNGELLKYIRKIGSFDETCTRFYTAEIVSALEYLHGKGIIHRDLKPENILLNEDMHIQITDFGTAKVLSPESKQARANSFVGTAQYVSPELLTEKSACKSSDLWALGCIIYQLVAGLPPFRAGNEYLIFQKIIKLEYDFPEKFFPKARDLVEKLLVLDATKRLGCEEMEGYGPLKAHPFFESVTWENLHQQTPPKLTAYLPAMSEDDEDCYGNYDNLLSQFGCMQVSSSSSSHSLSASDTGLPQRSGSNIEQYIHDLDSNSFELDLQFSEDEKRLLLEKQAGGNPWHQFVENNLILKMGPVDKRKGLFARRRQLLLTEGPHLYYVDPVNKVLKGEIPWSQELRPEAKNFKTFFVHTPNRTYYLMDPSGNAHKWCRKIQEVWRQRYQSHPDAAVQ",binding,[1],no binding
same,binding,[2],no binding
